# According to the supplement of paper PMC8728848:
# The other results are listed elsewhere or left out.
# B1: R2-fiber (Pseudomonas aeruginosa), Q9S576 (protein)
# chain: HHHHHHKVAKDLVVSLAYQVRTEDGVLVDESPVSAPLDYLHGHGSLISGLETALEGHEVGDKFDVAVGANDAYGQYDENLVQRVPKDVFMGVDELQVGMRFLAETDQGPVPVEITAVEDDHVVVDGNHMLAGQNLKFNVEVVAIREATEEELAHGHVHGAHDHHHDHDHDGCCGGHGHDHGHEHGGEGCCGGKGNGGCGCHENLYFQGVTAGMALAATDIPGLDASKLVSGVLAEQRLPVFARGLATAVSNSSDPNTATVPLMLTNHANGPVAGRYFYIQSMFYPDQNGNASQIATSYNATSEMYVRVSYAANPSIREWLPWQRCDIGGSFTKEADGELPGGVNLDSMVTSGWWSQSFTAQAASGANYPIVRAGLLHVYAASSNFIYQTYQAYDGESFYFRCRHSNTWFPWRRMWHGGDFNPSDYLLKSGFYWNALPGKPATFPPSAHNHDVGQLTSGILPLARGGVGSNTAAGARSTIGAGVPATASLGASGWWRDNDTGLIRQWGQVTCPADADASITFPIPFPTLCLGGYANQTSAFHPGTDASTGFRGATTTTAVIRNGYFAQAVLSWEAFGR
# Experiments:
# Assay in all cases: glycan array binding signal (z-score within array); higher = stronger binding
# Settings in all cases: glycan notation: IUPAC condensed, linker removed
# [1] = target: Fuc(a1-2)Gal(b1-4)GlcNAc(b1-3)Gal(b1-4)GlcNAc(b1-2)Man(a1-3)[Fuc(a1-2)Gal(b1-4)GlcNAc(b1-3)Gal(b1-4)GlcNAc(b1-2)Man(a1-6)]Man(b1-4)GlcNAc(b1-4)GlcNAc
# Procedure, shortened: (§1)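 The binding signal is a Z-score computed within each array. Data were drawn from 3228 arrays in the Consortium for Functional Glycomics database, restricted to those with a known protein sequence. Scores were averaged over arrays of the same protein sequence at different concentrations or buffers, and over linkers, and negative values can be taken as non-binding.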
# [2] = target: Fuc(a1-2)Gal(b1-4)GlcNAc(b1-3)Gal(b1-4)GlcNAc(b1-3)Gal(b1-4)GlcNAc
# Procedure, shortened: as §1
# [3] = target: Fuc(a1-2)Gal(b1-4)GlcNAc(b1-3)GalNAc
# Procedure, shortened: as §1
# [4] = target: Fuc(a1-2)Gal(b1-4)GlcNAc(b1-3)[Fuc(a1-2)Gal(b1-4)GlcNAc(b1-6)]GalNAc
# Procedure, shortened: as §1
# [5] = target: Fuc(a1-2)Gal(b1-4)GlcNAc(b1-3)[Fuc(a1-3)[Gal(b1-4)]GlcNAc(b1-6)]Gal(b1-4)Glc
# Procedure, shortened: as §1
# [6] = target: Fuc(a1-2)Gal(b1-4)GlcNAc(b1-6)GalNAc
# Procedure, shortened: as §1
# [7] = target: Fuc(a1-2)Gal(b1-4)GlcNAc6S
# Procedure, shortened: as §1
# [8] = target: Fuc(a1-2)Gal(b1-4)[Fuc(a1-3)]GlcNAc
# Procedure, shortened: as §1
# [9] = target: Fuc(a1-2)Gal(b1-4)[Fuc(a1-3)]GlcNAc(b1-2)Man(a1-3)[Fuc(a1-2)Gal(b1-4)[Fuc(a1-3)]GlcNAc(b1-2)Man(a1-6)]Man(b1-4)GlcNAc(b1-4)[Fuc(a1-6)]GlcNAc
# Procedure, shortened: as §1
# [10] = target: Fuc(a1-2)Gal(b1-4)[Fuc(a1-3)]GlcNAc(b1-2)[Fuc(a1-2)Gal(b1-4)[Fuc(a1-3)]GlcNAc(b1-4)]Man(a1-3)[Fuc(a1-2)Gal(b1-4)[Fuc(a1-3)]GlcNAc(b1-2)Man(a1-6)]Man(b1-4)GlcNAc(b1-4)GlcNAc
# Procedure, shortened: as §1
# [11] = target: Fuc(a1-2)Gal(b1-4)[Fuc(a1-3)]GlcNAc(b1-3)Gal(b1-4)[Fuc(a1-3)]GlcNAc
# Procedure, shortened: as §1
# [12] = target: Fuc(a1-2)Gal(b1-4)[Fuc(a1-3)]GlcNAc(b1-3)Gal(b1-4)[Fuc(a1-3)]GlcNAc(b1-3)Gal(b1-4)[Fuc(a1-3)]GlcNAc
# Procedure, shortened: as §1
# [13] = target: Fuc(a1-2)Gal(b1-4)[Fuc(a1-3)]GlcNAc(b1-3)GalNAc
# Procedure, shortened: as §1
# [14] = target: Fuc(a1-2)Gal(b1-4)[Fuc(a1-3)]GlcNAc(b1-3)[Neu5Ac(a2-6)Gal(b1-4)GlcNAc(b1-6)]Gal(b1-4)Glc
# Procedure, shortened: as §1
# [15] = target: Fuc(a1-2)Gal3S(b1-4)GlcNAc
# Procedure, shortened: as §1
# [16] = target: Fuc(a1-2)Gal6S(b1-3)GlcNAc
# Procedure, shortened: as §1
# [17] = target: Fuc(a1-2)Gal6S(b1-3)GlcNAc6S
# Procedure, shortened: as §1
# Fuc(a1-2)Gal6S(b1-4)Glc = target: Fuc(a1-2)Gal6S(b1-4)Glc
# Procedure, shortened: as §1
# [18] = target: Fuc(a1-2)Gal6S(b1-4)Glc6S
# Procedure, shortened: as §1
# Fuc(a1-2)[Gal(a1-3)]Gal = target: Fuc(a1-2)[Gal(a1-3)]Gal
# Procedure, shortened: as §1
# [19] = target: Fuc(a1-2)[Gal(a1-3)]Gal(b1-3)GalNAc
# Procedure, shortened: as §1
# [20] = target: Fuc(a1-2)[Gal(a1-3)]Gal(b1-3)GalNAc(b1-3)Gal(a1-4)Gal(b1-4)Glc
# Procedure, shortened: as §1
# [21] = target: Fuc(a1-2)[Gal(a1-3)]Gal(b1-3)GlcNAc
# Procedure, shortened: as §1
# [22] = target: Fuc(a1-2)[Gal(a1-3)]Gal(b1-3)GlcNAc(b1-2)Man(a1-3)[Fuc(a1-2)[Gal(a1-3)]Gal(b1-3)GlcNAc(b1-2)Man(a1-6)]Man(b1-4)GlcNAc(b1-4)GlcNAc
# Procedure, shortened: as §1
# [23] = target: Fuc(a1-2)[Gal(a1-3)]Gal(b1-3)GlcNAc(b1-2)Man(a1-3)[Fuc(a1-2)[Gal(a1-3)]Gal(b1-3)GlcNAc(b1-2)Man(a1-6)]Man(b1-4)GlcNAc(b1-4)[Fuc(a1-6)]GlcNAc
# Procedure, shortened: as §1
# [24] = target: Fuc(a1-2)[Gal(a1-3)]Gal(b1-3)GlcNAc(b1-3)GalNAc
# Procedure, shortened: as §1
# [25] = target: Fuc(a1-2)[Gal(a1-3)]Gal(b1-3)GlcNAc(b1-6)GalNAc
# Procedure, shortened: as §1
# [26] = target: Fuc(a1-2)[Gal(a1-3)]Gal(b1-4)Glc
# Procedure, shortened: as §1
# [27] = target: Fuc(a1-2)[Gal(a1-3)]Gal(b1-4)GlcNAc
# Procedure, shortened: as §1
# [28] = target: Fuc(a1-2)[Gal(a1-3)]Gal(b1-4)GlcNAc(b1-2)Man
# Procedure, shortened: as §1
binder,measurement,setting,value
B1,glycan array binding signal (z-score),[1],-1.36
same,glycan array binding signal (z-score),[2],0.478
same,glycan array binding signal (z-score),[3],0.212
same,glycan array binding signal (z-score),[4],-1.17
same,glycan array binding signal (z-score),[5],0.197
same,glycan array binding signal (z-score),[6],-0.579
same,glycan array binding signal (z-score),[7],-0.895
same,glycan array binding signal (z-score),[8],0.895
same,glycan array binding signal (z-score),[9],0.171
same,glycan array binding signal (z-score),[10],0.052
same,glycan array binding signal (z-score),[11],-0.433
same,glycan array binding signal (z-score),[12],-0.5
same,glycan array binding signal (z-score),[13],1.39
same,glycan array binding signal (z-score),[14],-0.021
same,glycan array binding signal (z-score),[15],0.037
same,glycan array binding signal (z-score),[16],-0.964
same,glycan array binding signal (z-score),[17],0.575
same,glycan array binding signal (z-score),Fuc(a1-2)Gal6S(b1-4)Glc,-0.893
same,glycan array binding signal (z-score),[18],-0.825
same,glycan array binding signal (z-score),Fuc(a1-2)[Gal(a1-3)]Gal,-0.066
same,glycan array binding signal (z-score),[19],-0.343
same,glycan array binding signal (z-score),[20],-0.281
same,glycan array binding signal (z-score),[21],-0.373
same,glycan array binding signal (z-score),[22],0.716
same,glycan array binding signal (z-score),[23],-0.392
same,glycan array binding signal (z-score),[24],-0.926
same,glycan array binding signal (z-score),[25],-0.263
same,glycan array binding signal (z-score),[26],-0.47
same,glycan array binding signal (z-score),[27],-0.962
same,glycan array binding signal (z-score),[28],-0.343
